This assay has as its system L1210 leukemia ip in BDF1 mice, survival T/C. The assay can be described thus: NCI In Vivo Anticancer Drug Screen. Data for tumor model L1210 Leukemia (intraperitoneal) in B6D2F1 (BDF1) mice. As to conditions: T/C endpoint: mean survival time, higher T/C = longer survival.
Setting [1] is: dose: 400.0 mg/kg/injection, schedule: Q01DX009 (ip), vehicle: Klucel (hydroxypropylcellulose) (HPC).
Setting [2] is: dose: 100.0 mg/kg/injection, schedule: Q01DX009 (ip), vehicle: Klucel (hydroxypropylcellulose) (HPC).
Setting [3] is: dose: 100.0 mg/kg/injection, schedule: Q04DX003 (ip), vehicle: saline.
[4] abbreviates: dose: 400.0 mg/kg/injection, schedule: Q04DX003 (ip), vehicle: saline.
Where [5] appears, read: dose: 100.0 mg/kg/injection, schedule: Q01DX009 (ip), vehicle: saline with Tween-80.

Structures are written as SMILES. The list is a part of this screen's results and no random one: it gathers tests that were run many times, whatever their T/C, doses with no T/C, and many T/C values between a quarter and a half above the control. Further doses and runs are listed elsewhere. T/C gives the treated animals as a percentage of the vehicle group. Some doses have a count of surviving animals in place of a T/C: the source holds a T/C of zero for them, seemingly a mark for toxic or unscored doses. Some doses without a T/C left all or most animals alive at the check, yet need not have been tolerated: the source hardly ever lists a survival T/C far under the control, and the zero likely stands for such cases as well. Counts of survivors are from the toxicity check (mostly the fifth day) where no day follows; animals may have died later. Schedules are NCI's codes, taken here to give the interval after Q, in days (D) or hours (H), and the number of doses after X. Some schedules carry Z or #; the key to these is not given. For survival time, this PubChem deposit counts one and a half times the control or more as active, and values a quarter to a half above the control carry no call in these data; other NCI protocols may use other cut-offs.

In PubChem BioAssay AID248 (DTP/NCI, 2004) one finds survivor count and T/C data, which are given here for 22 compounds.

Take `CCN(CC)CCNC(=O)c1ccc(N=Cc2cc(Br)ccc2O)cc1`: under setting [1], the survivor count is 0 of 6.
Turning to `CC#C[P+](Cc1ccccc1)(c1ccccc1)c1ccccc1`, the survivor count by setting is: (dose: 38.0 mg/kg/injection, schedule: Q01DX001 (ip), vehicle: saline) 3 of 6; (dose: 75.0 mg/kg/injection, schedule: Q01DX001 (ip), vehicle: other) 0 of 6; (dose: 150.0 mg/kg/injection, schedule: Q01DX001 (ip), vehicle: other) 0 of 6; (dose: 300.0 mg/kg/injection, schedule: Q01DX001 (ip), vehicle: other) 0 of 6.
Turning to `CN(C)N=Nc1ccccc1C#N`, under setting [2], the survivor count is listed as 3 of 6.
`Nc1ncnc2oc(-c3ccccc3)c(-c3ccccc3)c12`: the survivor count (dose: 25.0 mg/kg/injection, schedule: Q04DX002 (ip), vehicle: saline with Tween-80) is 3 of 3.
In the case of `Cn1c(=O)c2[nH]c(C3CC4C=CC3C4)nc2n(C)c1=O` (stereo not given), where the note is “dose: 400.0 mg/kg/injection, schedule: Q01DX001 (ip), vehicle: saline”, the survivor count is reported as 0 of 4.
As to `CC(C)=CC[P+](C)(c1ccccc1)c1ccccc1`, the survivor count (dose: 25.0 mg/kg/injection, schedule: Q04DX003 (ip), vehicle: saline) is 0 of 3; the survivor count (dose: 50.0 mg/kg/injection, schedule: Q04DX003 (ip), vehicle: saline) was 0 of 3; the survivor count under setting [3] is given as 0 of 3.
For `O=[As](O)(c1ccccc1)C1CCCCC1O` (stereo not given), the survivor count (dose: 100.0 mg/kg/injection, schedule: Q01DX001 (ip), vehicle: saline with Tween-80) is 3 of 6; the survivor count (dose: 200.0 mg/kg/injection, schedule: Q01DX001 (ip), vehicle: saline with Tween-80) was 0 of 6; the survivor count (dose: 400.0 mg/kg/injection, schedule: Q01DX001 (ip), vehicle: saline with Tween-80) is listed as 0 of 6.
With `CCCCCCCCC(=O)N(C)CCO`, the survivor count is given as 6 of 6 (dose: 100.0 mg/kg/injection, schedule: Q04DX003 (ip), vehicle: saline with Tween-80); 1 of 6 (dose: 400.0 mg/kg/injection, schedule: Q04DX003 (ip), vehicle: saline with Tween-80); 3 of 6 under setting [4].
Take `O=S(=O)(C1CCCCC1)N1N=NC2CCCCC21` (stereo not given): under “dose: 200.0 mg/kg/injection, schedule: Q01DX009 (ip), vehicle: saline with Tween-80”, the survivor count is recorded as 4 of 6.
Turning to `NCCSC1(O)C(=O)c2ccccc2-c2ccccc21` (stereo not given), the survivor count (dose: 300.0 mg/kg/injection, schedule: Q01DX001 (ip), vehicle: saline) was 3 of 6.
Consider `CCS(=O)(=O)/C=C/c1ccncc1`, for which the survivor count (dose: 200.0 mg/kg/injection, schedule: Q04DX002 (ip), vehicle: saline) was 0 of 3 and the survivor count (dose: 400.0 mg/kg/injection, schedule: Q04DX002 (ip), vehicle: saline) is listed as 0 of 3.
In the case of `Cc1cccc[n+]1CCC(N)=O`, the survivor count is 1 of 6 under setting [3]; 0 of 6 (dose: 200.0 mg/kg/injection, schedule: Q04DX003 (ip), vehicle: saline); 0 of 6 under setting [4].
Take `Cc1cc2c(c3oc(C4(C)OC4C4OC4C)cc(=O)c13)C(=O)c1c(O)c(C3CC(C)(N(C)C)C(O)C(C)O3)cc(C3CC(N(C)C)C(O)C(C)O3)c1C2=O` (stereo not given): the survivor count is, setting by setting: (dose: 0.24 mg/kg/injection, schedule: Q01DX009 (ip), vehicle: other) 10 of 10; (dose: 0.48 mg/kg/injection, schedule: Q01DX009 (ip), vehicle: other) 10 of 10; (dose: 0.48 mg/kg/injection, schedule: Q01DX009 (ip), vehicle: saline) 10 of 10; (dose: 0.96 mg/kg/injection, schedule: Q01DX009 (ip), vehicle: other) 10 of 10; (dose: 0.96 mg/kg/injection, schedule: Q01DX009 (ip), vehicle: saline) 10 of 10; (dose: 100.0 micrograms/kg/injection, schedule: Q01DX Z (ip), vehicle: carboxymethylcellulose (CMC)) 6 of 6. Moreover, the survivor count by setting is: (dose: 150.0 micrograms/kg/injection, schedule: Q01DX001 (ip), vehicle: carboxymethylcellulose (CMC)) 2 of 6; (dose: 192.0 micrograms/kg/injection, schedule: Q01DX015 (ip), vehicle: saline) 6 of 6; (dose: 200.0 micrograms/kg/injection, schedule: Q01DX Z (ip), vehicle: carboxymethylcellulose (CMC)) 2 of 6; (dose: 300.0 micrograms/kg/injection, schedule: Q01DX001 (ip), vehicle: carboxymethylcellulose (CMC)) 0 of 6. For the same compound, the T/C reads like this: (dose: 24.0 micrograms/kg/injection, schedule: Q01DX015 (ip), vehicle: saline) 127 % of control; (dose: 37.0 micrograms/kg/injection, schedule: Q01DX001 (ip), vehicle: carboxymethylcellulose (CMC)) 125 % of control; (dose: 48.0 micrograms/kg/injection, schedule: Q01DX015 (ip), vehicle: saline) 127 % of control.
For `CC(C)N1CCOCC1`, the survivor count (dose: 150.0 mg/kg/injection, schedule: Q01DX009 (ip), vehicle: saline with Tween-80) was 2 of 6; the survivor count (dose: 225.0 mg/kg/injection, schedule: Q01DX009 (ip), vehicle: saline with Tween-80) is 0 of 6; the survivor count (dose: 335.0 mg/kg/injection, schedule: Q01DX009 (ip), vehicle: saline with Tween-80) is 0 of 6.
Consider `O=C(/C=C(\Br)c1ccccc1)c1ccccc1`, for which the survivor count under setting [5] was 3 of 3.
Consider `COc1cccc(-c2nc3ccccc3s2)c1OC`, for which the survivor count by setting is: (dose: 200.0 mg/kg/injection, schedule: Q04DX003 (ip), vehicle: DMSO) 0 of 3; (dose: 400.0 mg/kg/injection, schedule: Q04DX003 (ip), vehicle: DMSO) 0 of 3.
Take `CC(=O)OC1CC2c3ccccc3C1c1cccc[n+]12` (stereo not given): the survivor count runs as follows: (dose: 100.0 mg/kg/injection, schedule: Q04DX003 (ip), vehicle: Klucel (hydroxypropylcellulose) (HPC)) 6 of 6; (dose: 115.0 mg/kg/injection, schedule: Q01DX009 (ip), vehicle: Klucel (hydroxypropylcellulose) (HPC)) 3 of 6; (dose: 170.0 mg/kg/injection, schedule: Q01DX009 (ip), vehicle: Klucel (hydroxypropylcellulose) (HPC)) 0 of 6; (dose: 200.0 mg/kg/injection, schedule: Q01DX001 (ip), vehicle: Klucel (hydroxypropylcellulose) (HPC)) 1 of 6; (dose: 400.0 mg/kg/injection, schedule: Q01DX001 (ip), vehicle: Klucel (hydroxypropylcellulose) (HPC)) 1 of 6.
`O=[N+]([O-])c1cccc2nonc12`: the survivor count (dose: 50.0 mg/kg/injection, schedule: Q04DX002 (ip), vehicle: Klucel (hydroxypropylcellulose) (HPC)) is recorded as 1 of 3; the survivor count (dose: 100.0 mg/kg/injection, schedule: Q04DX002 (ip), vehicle: Klucel (hydroxypropylcellulose) (HPC)) is 0 of 3; the survivor count (dose: 200.0 mg/kg/injection, schedule: Q04DX002 (ip), vehicle: Klucel (hydroxypropylcellulose) (HPC)) is reported as 0 of 3.
Turning to `NC(N)=N/N=C/c1ccccc1O`, the survivor count reads like this: (dose: 63.0 mg/kg/injection, schedule: Q01DX Z (ip), vehicle: saline) 6 of 6; (dose: 125.0 mg/kg/injection, schedule: Q01DX Z (ip), vehicle: saline) 6 of 6.
Take `CN1C(OO)CCOP1(=O)N(CCCl)CCCl` (stereo not given): the survivor count (dose: 300.0 mg/kg/injection, schedule: Q01DX001 (ip), vehicle: DMSO) is 0 of 6.
With `CC1(C)C2CCC1(CS(=O)(=O)O)C(=O)C2.[Ag]` (stereo not given), the survivor count by setting is: (dose: 25.0 mg/kg/injection, schedule: Q01DX009 (ip), vehicle: saline with Tween-80) 4 of 6; (dose: 50.0 mg/kg/injection, schedule: Q01DX009 (ip), vehicle: saline with Tween-80) 1 of 6; under setting [5], 0 of 6.
Turning to `COc1ccc(NC(=O)Oc2ccc(C=O)cc2OC)c(OC)c1`, the survivor count is on record as 6 of 6 under setting [2]; 5 of 6 (dose: 200.0 mg/kg/injection, schedule: Q01DX009 (ip), vehicle: Klucel (hydroxypropylcellulose) (HPC)); 3 of 6 under setting [1].
